Most values lie at the floor of the assay. Slopes are relative: functional sequences can read slightly below zero.
test system: Saccharomyces cerevisiae PS128 hsf1 delta, HSF1(1-493) fusion; assay: growth estimate (transactivation domain function in HSF1 fusion, heat-shock survival) (a.u. (slope of normalised read count over time)); higher = stronger growth at 37°C, i.e. more transactivation activity; details: library: random library

Row | Substance | growth estimate
1 | YTNSARILLSIR | < -0.25
2 | YRREQRGVLGGHGVAFASRS | < -0.25
3 | KSPTPIVEQVN | < -0.25
4 | SGGRECHFGGPLDYVRCQHI | < -0.25
5 | PRNKK | < -0.25
6 | RCEEP | < -0.25
7 | PSSC | < -0.25
8 | TFRLRGPLWGSACKVHCRHM | < -0.25
9 | CDVLLQNVTGSLSARVPPTR | < -0.25
10 | ARRGAGRARGGPRRDVCFMS | < -0.25
11 | RLNASTVLYGVRSYLRCAFD | < -0.25
12 | IESESECDGTRSGRMR | < -0.25
13 | EIHSACEVGVGVLQMIRCRP | < -0.25
14 | SIPMMERTNKNTTFGNS | < -0.25
15 | LLFDKRRLSMVLVPTP | < -0.25
16 | LWISDGARLSSMDRSLGHGS | < -0.25
17 | RLRGSACETATTHGVRWVCL | < -0.25
18 | PRGLVTLGGSHRFRLNVRPV | < -0.25
19 | WVRGLPMFLRWQATIHARSR | < -0.25
20 | QPSAGHDLLM | < -0.25
21 | HSTCCAEGK | < -0.25
22 | RQQREKECALKCGKMSLVIC | < -0.25
23 | MPALLQDRYLPQPTIGSMIG | < -0.25
24 | GGLNRSEHPGQTIWLRNLEV | -0.245
25 | FSRSE | < -0.25

Row | Substance | growth estimate
26 | TVTDVQY | < -0.25
27 | ASWCSDDPELEAEFSLLVRW | -0.121
28 | IRFVGIIMRVR | < -0.25
29 | LRTMGGRASDPARSLM | < -0.25
30 | IGAYTGVVYSISGDYNGVPS | < -0.25
31 | REPNRRRSCTVDVFHAVFPP | < -0.25
32 | IKATGHMSSRAGN | < -0.25
33 | SDG | < -0.25
34 | VENIVQLTARPIPFLKDTRA | < -0.25
35 | PEHLCRSTRGPHSACNAIIE | < -0.25
36 | RPAIQFVRIVI | < -0.25
37 | SRQRGICGCDAGEQLLIASI | < -0.25
38 | LTGICNLGKQWLRF | < -0.25
39 | RCRYGVERSGQIEQMLCRSV | < -0.25
40 | FFAFCLNLLGPAGVVKLEFN | < -0.25
41 | FIANPSVWQVLRSAH | < -0.25
42 | RTISMCPDDVQIFRNARVN | < -0.25
43 | RERE | < -0.25
44 | GFGRSHERVRCRKFSSWPNG | < -0.25
45 | WFGQVRD | < -0.25
46 | MSRF | < -0.25
47 | ASCEGASTGRVHRESLRDSP | < -0.25
48 | HCK | < -0.25
49 | IAHPLATTRGSST | < -0.25
50 | SLWESRLICCNTRLKCVWGL | < -0.25

Row | Substance | growth estimate
51 | AKRPQFWLVST | < -0.25
52 | ETSLGHEMDGDQANL | < -0.25
53 | IVIAAGLLRT | < -0.25
54 | GGGGGLMASIR | < -0.25
55 | QRRRKKWYVHVSLIASQTHE | < -0.25
56 | LTFGGGSGSERSSSLDHHFQ | < -0.25
57 | PTLVSGHRKRACLIRATWP | < -0.25
58 | LEGCVESIPRKR | < -0.25
59 | MVLHYSIPSSE | < -0.25
60 | PHFSHLGEQLHWMLGKLWAA | < -0.25
61 | VAGSLQLQLGWR | < -0.25
62 | SNAF | < -0.25
63 | GYISPSRLNVSCGIDQT | < -0.25
64 | LVSPKKPGIMEPEPDPPCRG | < -0.25
65 | VGHGEASAQSGGGNSLNSAR | < -0.25
66 | LAVRVSATGVVLHILPHGRR | < -0.25
67 | HERSRCP | < -0.25
68 | VVFLMVFRVSCYLSPRSRTF | < -0.25
69 | SARITRCRTVSERIALTNPR | < -0.25
70 | YPGWVIKPYMS | < -0.25
71 | GRSESCTTVAMFMSRP | -0.009
72 | VDSLLHPNEGPV | < -0.25
73 | RAQGIAGAVRECARF | < -0.25
74 | YVVAYVREIPLPHCKKAGSA | < -0.25
75 | VLSAVTWQIWRALLESTRAP | < -0.25

Looked up above.
Entry for YPGWVIKPYMS under growth estimate: < -0.25
Entry for GYISPSRLNVSCGIDQT under growth estimate: < -0.25

Additional results follow.

Row | Substance | growth estimate
76 | RPVTYVGHGVQVDYNTHIND | < -0.25
77 | RGRAHGRHPLRYALICQGAM | < -0.25
78 | LTGRPKPRVARAAGFNAGSS | < -0.25
79 | REVRPALASYG | < -0.25
80 | FRVRQDDT | < -0.25
81 | GAGDLYCSMASVKSGICFLC | < -0.25
82 | LDHRIW | < -0.25
83 | THVYGGTRR | < -0.25
84 | HLGIGLDTGWSEI | < -0.25
85 | NCKGAPQTF | < -0.25
86 | YRMHLSLVSEKVEMVSLGRA | < -0.25
87 | SSLVDRRYPKGTSRTMQLQM | < -0.25
88 | VMSC | < -0.25
89 | KSSAKTAGGTDLF | < -0.25
90 | PSAK | < -0.25
91 | GEVYTSSSPSVTRFKSPQNC | < -0.25
92 | CTRVRGTRLSNVNEVSAISL | < -0.25
93 | PVNRSSAAYDVAAGDRRRSG | < -0.25
94 | RKLPPWNVLLTPSLRMCFVH | < -0.25
95 | DREIEGGIQL | -0.246
96 | ATRPGHFRQKWAPGGGEQSH | < -0.25
97 | ADRPEHVLESVGIQLQCRRR | < -0.25
98 | DQGLFLSVFTLLRRPEVIKQ | < -0.25
99 | GSRARSPAPSGYLAIRARTL | < -0.25
100 | LFVAQSGMSRLRWSLVGPKR | < -0.25

26 entries from above, with tabs.
Row	Substance	growth estimate
6	RCEEP	< -0.25
7	PSSC	< -0.25
8	TFRLRGPLWGSACKVHCRHM	< -0.25
9	CDVLLQNVTGSLSARVPPTR	< -0.25
10	ARRGAGRARGGPRRDVCFMS	< -0.25
11	RLNASTVLYGVRSYLRCAFD	< -0.25
12	IESESECDGTRSGRMR	< -0.25
13	EIHSACEVGVGVLQMIRCRP	< -0.25
14	SIPMMERTNKNTTFGNS	< -0.25
15	LLFDKRRLSMVLVPTP	< -0.25
16	LWISDGARLSSMDRSLGHGS	< -0.25
17	RLRGSACETATTHGVRWVCL	< -0.25
18	PRGLVTLGGSHRFRLNVRPV	< -0.25
19	WVRGLPMFLRWQATIHARSR	< -0.25
20	QPSAGHDLLM	< -0.25
21	HSTCCAEGK	< -0.25
22	RQQREKECALKCGKMSLVIC	< -0.25
23	MPALLQDRYLPQPTIGSMIG	< -0.25
24	GGLNRSEHPGQTIWLRNLEV	-0.245
25	FSRSE	< -0.25
26	TVTDVQY	< -0.25
27	ASWCSDDPELEAEFSLLVRW	-0.121
28	IRFVGIIMRVR	< -0.25
29	LRTMGGRASDPARSLM	< -0.25
30	IGAYTGVVYSISGDYNGVPS	< -0.25
31	REPNRRRSCTVDVFHAVFPP	< -0.25
